# The other results are listed elsewhere or left out.
# Compound: Cc1cc(ccc1-c1ccccc1)C(=O)N1CCCN(CC1)C(=O)CCl [compound 10]
# Test: probe-labelled cysteine peptide fold change vs DMSO (competition) (log2 fold change); higher = less target engagement (more negative = stronger competition)
# Conditions: THP-1, incubation time: 4 h
# 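Also: competitive profiling in live THP-1 cells: cysteine peptides tagged with an iodoacetamide desthiobiotin (IA-DTB) probe, intensity after compound treatment relative to DMSO-treated cells.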
Target,probe-labelled cysteine peptide fold change (10 µM),probe-labelled cysteine peptide fold change (50 µM)
WASHC5_Q12768_838_MTCHIDQLNTWYDMK (UniProt Q12768),0.028,-0.0245
WDR33_Q9C0J8_996_GGQDCR (UniProt Q9C0J8),-0.0589,-0.444
WDFY4_Q6ZS81_545_VSTPGVQDPERELTCVMLR (UniProt Q6ZS81),-0.087,-0.218
WDR6_Q9NNW5_26_ATSELILLPVTGLECVGDR (UniProt Q9NNW5),0.132,0.26
XPC_Q01831_790_KLDIDCVQAITGFDFHGGYSHPVTDGYIVCEEFK (UniProt Q01831),0.224,-0.446
WDFY1_Q8IWB7_204_GHEGSVACLWWDPIQR (UniProt Q8IWB7),0.199,0.112
XPNPEP1_Q9NQW7_582+592_ECDWLNNYHLTCR (UniProt Q9NQW7),0.175,0.0551
WDR48_Q8TAF3_225_DGTQCLSGSSDGTIR (UniProt Q8TAF3),0.000326,-0.0528
WDHD1_O75717_1008_NVLSETPAICPPQNTENQRPK (UniProt O75717),-0.0327,-0.0281
WDR13_Q9H1Z4_432_QGACVVTGSEDMCVHFFDVER (UniProt Q9H1Z4),-0.154,-0.222
WDR37_Q9Y2I8_330_TANLYDVETSELVHSLTGHDQELTHCCTHPTQR (UniProt Q9Y2I8),0.146,-0.151
WDR3_Q9UNX4_70+72_QEVTCLCPSPDGLHLAVGYEDGSIR (UniProt Q9UNX4),0.093,0.237
WDR62_O43379_826_CLLTNGK (UniProt O43379),-0.317,-0.775
WDR55_Q9H6Y2_5_TCEERPAEDGSDEEDPDSMEAPTR (UniProt Q9H6Y2),-0.668,-1.19
XPC_Q01831_814_KLDIDCVQAITGFDFHGGYSHPVTDGYIVCEEFK (UniProt Q01831),-0.21,-0.394
WDR46_O15213_271_WLHIYDNQGIELHCIR (UniProt O15213),0.0322,0.087
WDR70_Q9NW82_383_QAHDSGTDTSCVTFSYDGNVLASR (UniProt Q9NW82),0.268,-0.00931
XIAP_P98170_12_TCVPADINKEEEFVEEFNR (UniProt P98170),-0.356,-0.413
WDR26_Q9H7D7_153_LIGQHLNGLGLNQTVDLLMQESGCR (UniProt Q9H7D7),-0.156,-0.032
WDR91_A4D1P6_246_LGDSELAMVCSQR (UniProt A4D1P6),-0.309,-0.425
WDR11_Q9BZH6_411_NSSSGVSPLYSPVSFCGIPVGVLQNK (UniProt Q9BZH6),0.177,0.0096

Target,probe-labelled cysteine peptide fold change (10 µM),probe-labelled cysteine peptide fold change (50 µM)
XPNPEP1_Q9NQW7_502_SALWDSGLDYLHGTGHGVGSFLNVHEGPCGISYK (UniProt Q9NQW7),0.209,0.258
WDR77_Q9BQA1_186_DSVFLSCSEDNR (UniProt Q9BQA1),0.136,0.227
XPA_P23025_126+129_EFMDSYLMNHFDLPTCDNCR (UniProt P23025),0.318,-0.612
WDR36_Q8NI36_311_TDGHPVMAAGSPCGHIGLWDLEDKK (UniProt Q8NI36),0.0762,-0.28
WDR76_Q9H967_214_RENGIGCR (UniProt Q9H967),-0.26,-0.134
WDR11_Q9BZH6_473_MCPPLTTK (UniProt Q9BZH6),0.0578,-0.0661
WDR76_Q9H967_66_VYLAPFSLSNYQLDQLMCPK (UniProt Q9H967),0.0473,0.35
WDR1_O75083_170_LATGSDDNCAAFFEGPPFK (UniProt O75083),0.0581,0.235
WDR92_Q96MX6_339_GLCVCSSFDQTVR (UniProt Q96MX6),0.0179,0.0292
XAB2_Q9HCS7_66_LLPCSYK (UniProt Q9HCS7),-0.68,0.0193
XAB2_Q9HCS7_98_CVTDPAYEDVNNCHER (UniProt Q9HCS7),-0.0369,-0.419
XPNPEP1_Q9NQW7_316_CCMPYTPICIAK (UniProt Q9NQW7),0.0364,-0.0969
WDR81_Q562E7_1226_ILLDTACK (UniProt Q562E7),-0.218,-0.0214
WDR55_Q9H6Y2_268_AESIDCMVPVTESLLCTGSTDGVIR (UniProt Q9H6Y2),0.135,0.421
WRN_Q14191_1115_LYSYKPCDK (UniProt Q14191),-0.116,-0.708
WWP2_O00308_506_FLCHSNALPSHVK (UniProt O00308),-0.0825,0.141
WDR61_Q9GZS3_266_TCVHTFFDHQDQVWGVK (UniProt Q9GZS3),-0.0412,-0.0496
WIPI2_Q9Y4P8_430_LAYTDDLGAVGGACLEDEASALRLDEDSEHPPMILR (UniProt Q9Y4P8),-0.352,-0.0492
XAB2_Q9HCS7_86+98_CVTDPAYEDVNNCHER (UniProt Q9HCS7),-0.113,-0.69
WDFY4_Q6ZS81_582_IFLDDECYR (UniProt Q6ZS81),-0.0212,-0.613
WDR19_Q8NEZ3_813_EHDEACLAGVAQMSIR (UniProt Q8NEZ3),0.164,0.249

# Another view of some results above.
Target	probe-labelled cysteine peptide fold change (10 µM)	probe-labelled cysteine peptide fold change (50 µM)
WDR62_O43379_826_CLLTNGK (UniProt O43379)	-0.317	-0.775
WDR46_O15213_271_WLHIYDNQGIELHCIR (UniProt O15213)	0.0322	0.087
XPNPEP1_Q9NQW7_502_SALWDSGLDYLHGTGHGVGSFLNVHEGPCGISYK (UniProt Q9NQW7)	0.209	0.258
WDR11_Q9BZH6_473_MCPPLTTK (UniProt Q9BZH6)	0.0578	-0.0661

# Further entries follow:

Target,probe-labelled cysteine peptide fold change (10 µM),probe-labelled cysteine peptide fold change (50 µM)
WDR92_Q96MX6_70_CGTFGATSLQQR (UniProt Q96MX6),-0.18,-0.264
WDR75_Q8IWA0_444+451_INMPHEDCITALCFCNAEK (UniProt Q8IWA0),0.028,-0.701
WDR76_Q9H967_596_VHSFGGEYLVSVCSINAMHPTR (UniProt Q9H967),-0.0527,0.102
WDR18_Q9BV38_384_LGLHQQGSEPSYLDRTEQLQAVLCSTMEK (UniProt Q9BV38),0.00371,-0.169
WRAP53_Q9BUR4_512_HVHLECR (UniProt Q9BUR4),0.0756,0.0138
WDHD1_O75717_156_DIFLASASCDGSVR (UniProt O75717),0.0733,0.308
XPC_Q01831_680_DCVHTLHSR (UniProt Q01831),0.0816,0.0167
WDFY4_Q6ZS81_2352_EAEGEPDEVGVDCTQLTFFPALHESLHSEDFLELCR (UniProt Q6ZS81),-0.125,-0.598
XIAP_P98170_90_KVSPNCR (UniProt P98170),-0.159,-0.396
WDFY4_Q6ZS81_2283_IQEQLFGELGLWSQGEETKPCSPWELDWR (UniProt Q6ZS81),-0.0269,-0.494
XPNPEP1_Q9NQW7_309_CCMPYTPICIAK (UniProt Q9NQW7),0.00998,-0.216
XPNPEP1_Q9NQW7_443_ECFTYVLK (UniProt Q9NQW7),0.0722,0.0698
WDR6_Q9NNW5_813_AEMHCFSIMVTPDPSTPSR (UniProt Q9NNW5),-0.184,-0.204
WDR55_Q9H6Y2_191_LLLTASGDGCLGIFNIK (UniProt Q9H6Y2),0.0904,-0.0599
WDYHV1_Q96HA8_165_DSSGNWREPPPPYPCIETGDSK (UniProt Q96HA8),-0.175,-0.355
WDR7_Q9Y4E6_326_ELLICPPVTR (UniProt Q9Y4E6),0.0559,0.0701
WDFY1_Q8IWB7_189_LEQNTCSVITTLK (UniProt Q8IWB7),0.557,0.736
XPNPEP1_Q9NQW7_592_ECDWLNNYHLTCR (UniProt Q9NQW7),-0.00678,-0.0935
WDR33_Q9C0J8_120_CPVFVVR (UniProt Q9C0J8),0.06,0.0127
WDR91_A4D1P6_596_LFDMQQHECAMSWR (UniProt A4D1P6),0.14,0.0812
WDFY4_Q6ZS81_264_AQNLSIIQYLQATDCVR (UniProt Q6ZS81),0.197,-0.105

Target,probe-labelled cysteine peptide fold change (10 µM),probe-labelled cysteine peptide fold change (50 µM)
WDR75_Q8IWA0_546_HLCFGR (UniProt Q8IWA0),0.0497,0.149
WDR7_Q9Y4E6-2_959_QGWSQLAAMHCVMLPDLLGLDK (UniProt Q9Y4E6),-0.158,0.163
XPNPEP3_Q9NQH7_492_IEDDVVVTQDSPLILSADCPK (UniProt Q9NQH7),-0.204,0.104
WDR60_Q8WVS4_1047_WAAPEVDECNR (UniProt Q8WVS4),-0.304,-0.717
WDR43_Q15061_372_EPHMCLVR (UniProt Q15061),-0.0383,-0.00313
WDR11_Q9BZH6_83_ENYHHNIGSPYCLR (UniProt Q9BZH6),-0.289,-0.894
WDR74_Q6RFH5_83_HCPGGEGMFR (UniProt Q6RFH5),-0.0242,0.0642
WDR61_Q9GZS3_303_IVSVGDDQEIHIYDCPI (UniProt Q9GZS3),-0.278,0.119
WDR4_P57081_95_TKPWQCLSVR (UniProt P57081),-0.151,-0.0446
WDR59_Q6PJI9_654_VIIQDIACLLPVHK (UniProt Q6PJI9),0.145,-0.0774
WDR76_Q9H967_81_NSNNEVACK (UniProt Q9H967),-0.462,-0.141
WDR11_Q9BZH6_107_IIVWDVAAGVAQCEIQEHAK (UniProt Q9BZH6),0.0242,0.291
WDR43_Q15061_140_VNCIQWHQDSGCLYSCSDDK (UniProt Q15061),0.0617,0.2
WDR66_Q8TBY9_567_SNYPPDCTLK (UniProt Q8TBY9),0.245,0.47
WDR34_Q96EX3_529_EAEDLDCLAAEVAA (UniProt Q96EX3),-0.0979,0.196
WDR37_Q9Y2I8_417_INVCVGQK (UniProt Q9Y2I8),0.00743,-0.227
WDR62_O43379_376_KAEAVYPDTVALTFDPIHQWLSCVYK (UniProt O43379),0.316,0.164
WDR75_Q8IWA0_217_NNFTCVACHPTEDCIASGHMDGK (UniProt Q8IWA0),0.11,-0.149
WDR1_O75083_438_CFSIDNPGYEPEVVAVHPGGDTVAIGGVDGNVR (UniProt O75083),-0.0308,-0.196

# From the supplement of paper PMC12067093, “Discovery and optimisation of a covalent ligand for TRIM25 and its application to targeted protein ubiquitination” (Chemical Science, 2025)
